Results: the supplement of paper PMC7666118
This is one part of the list.

Chains of the proteins cited; added tags and fusions are not shown. Lines headed by an entry give the natural chain unless they say otherwise; changes in a name come on top.
UniProt Q9BT17: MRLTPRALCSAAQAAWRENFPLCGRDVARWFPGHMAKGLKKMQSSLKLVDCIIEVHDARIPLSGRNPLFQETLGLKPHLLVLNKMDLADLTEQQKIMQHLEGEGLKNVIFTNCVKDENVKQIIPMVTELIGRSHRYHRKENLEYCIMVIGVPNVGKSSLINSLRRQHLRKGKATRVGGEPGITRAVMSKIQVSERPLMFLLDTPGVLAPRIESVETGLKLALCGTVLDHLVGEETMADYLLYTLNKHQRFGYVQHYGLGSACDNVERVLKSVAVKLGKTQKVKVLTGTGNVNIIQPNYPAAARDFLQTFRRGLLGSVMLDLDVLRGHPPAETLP
UniProt P51957: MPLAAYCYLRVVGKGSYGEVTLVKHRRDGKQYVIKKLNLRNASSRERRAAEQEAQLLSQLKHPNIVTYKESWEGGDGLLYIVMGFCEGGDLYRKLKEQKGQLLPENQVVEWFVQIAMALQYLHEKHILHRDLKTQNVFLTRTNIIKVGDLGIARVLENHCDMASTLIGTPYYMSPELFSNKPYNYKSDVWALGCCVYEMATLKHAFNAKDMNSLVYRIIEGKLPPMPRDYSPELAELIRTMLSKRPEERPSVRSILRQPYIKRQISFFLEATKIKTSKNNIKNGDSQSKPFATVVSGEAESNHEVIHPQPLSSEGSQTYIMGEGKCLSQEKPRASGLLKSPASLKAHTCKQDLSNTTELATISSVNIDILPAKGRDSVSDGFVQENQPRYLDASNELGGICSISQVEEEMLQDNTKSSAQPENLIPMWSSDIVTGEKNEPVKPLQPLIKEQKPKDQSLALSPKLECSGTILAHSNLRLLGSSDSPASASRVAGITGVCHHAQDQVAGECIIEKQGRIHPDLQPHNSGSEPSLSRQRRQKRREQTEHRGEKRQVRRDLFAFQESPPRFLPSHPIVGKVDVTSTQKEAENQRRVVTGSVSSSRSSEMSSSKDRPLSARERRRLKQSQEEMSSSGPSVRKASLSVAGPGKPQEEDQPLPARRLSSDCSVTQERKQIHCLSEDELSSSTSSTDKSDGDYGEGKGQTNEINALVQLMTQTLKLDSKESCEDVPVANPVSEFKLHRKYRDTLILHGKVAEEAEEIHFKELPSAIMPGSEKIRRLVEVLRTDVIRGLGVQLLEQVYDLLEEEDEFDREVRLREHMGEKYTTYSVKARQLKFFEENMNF
UniProt Q13505: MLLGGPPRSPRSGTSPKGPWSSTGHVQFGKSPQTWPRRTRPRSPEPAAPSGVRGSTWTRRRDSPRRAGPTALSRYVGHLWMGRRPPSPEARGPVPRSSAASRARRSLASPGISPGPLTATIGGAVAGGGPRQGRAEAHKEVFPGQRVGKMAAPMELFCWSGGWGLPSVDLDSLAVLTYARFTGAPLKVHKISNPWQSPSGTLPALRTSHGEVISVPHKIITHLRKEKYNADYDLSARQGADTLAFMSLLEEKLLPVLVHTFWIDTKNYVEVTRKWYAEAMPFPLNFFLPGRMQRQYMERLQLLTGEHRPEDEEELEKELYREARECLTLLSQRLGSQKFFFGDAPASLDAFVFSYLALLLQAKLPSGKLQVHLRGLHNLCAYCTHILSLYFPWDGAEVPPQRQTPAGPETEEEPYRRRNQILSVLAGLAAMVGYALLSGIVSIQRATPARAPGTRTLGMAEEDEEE
UniProt P14649: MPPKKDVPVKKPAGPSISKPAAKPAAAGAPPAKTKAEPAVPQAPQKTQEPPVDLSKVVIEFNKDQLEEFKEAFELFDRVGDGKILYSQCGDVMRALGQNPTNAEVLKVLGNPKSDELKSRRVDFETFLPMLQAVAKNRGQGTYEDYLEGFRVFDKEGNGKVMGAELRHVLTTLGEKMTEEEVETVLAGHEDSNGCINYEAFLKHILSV
UniProt Q12968: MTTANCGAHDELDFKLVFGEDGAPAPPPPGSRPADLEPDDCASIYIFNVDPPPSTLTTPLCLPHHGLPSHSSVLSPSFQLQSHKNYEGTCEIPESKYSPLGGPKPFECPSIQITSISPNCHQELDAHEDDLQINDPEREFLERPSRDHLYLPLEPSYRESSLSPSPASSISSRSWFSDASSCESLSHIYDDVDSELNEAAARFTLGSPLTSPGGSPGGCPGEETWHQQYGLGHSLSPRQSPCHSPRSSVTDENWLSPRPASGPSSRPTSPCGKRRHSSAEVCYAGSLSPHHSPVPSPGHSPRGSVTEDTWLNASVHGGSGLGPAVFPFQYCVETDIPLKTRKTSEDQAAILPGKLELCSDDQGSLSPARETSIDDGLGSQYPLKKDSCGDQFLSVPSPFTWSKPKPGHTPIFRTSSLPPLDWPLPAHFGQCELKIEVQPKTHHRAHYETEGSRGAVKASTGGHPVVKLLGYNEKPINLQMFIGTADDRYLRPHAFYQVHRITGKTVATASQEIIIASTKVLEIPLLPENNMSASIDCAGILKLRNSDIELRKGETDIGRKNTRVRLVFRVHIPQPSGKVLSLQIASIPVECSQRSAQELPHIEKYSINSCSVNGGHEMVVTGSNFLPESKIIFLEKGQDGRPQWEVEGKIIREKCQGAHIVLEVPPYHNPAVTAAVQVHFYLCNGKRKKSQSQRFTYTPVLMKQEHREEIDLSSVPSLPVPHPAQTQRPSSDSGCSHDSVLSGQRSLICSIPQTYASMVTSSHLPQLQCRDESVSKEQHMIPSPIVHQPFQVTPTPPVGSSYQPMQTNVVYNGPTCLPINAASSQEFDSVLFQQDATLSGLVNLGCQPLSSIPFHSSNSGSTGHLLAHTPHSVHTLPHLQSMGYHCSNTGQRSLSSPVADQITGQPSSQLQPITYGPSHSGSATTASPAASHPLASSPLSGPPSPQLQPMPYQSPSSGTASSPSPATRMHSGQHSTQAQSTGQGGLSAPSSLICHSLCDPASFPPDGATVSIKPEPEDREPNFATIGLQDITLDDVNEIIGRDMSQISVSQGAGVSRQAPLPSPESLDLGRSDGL
UniProt O95298, whole entry: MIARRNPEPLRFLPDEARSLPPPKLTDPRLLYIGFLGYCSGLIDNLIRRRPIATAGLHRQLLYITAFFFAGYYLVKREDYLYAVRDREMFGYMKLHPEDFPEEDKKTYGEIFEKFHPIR
UniProt P46087: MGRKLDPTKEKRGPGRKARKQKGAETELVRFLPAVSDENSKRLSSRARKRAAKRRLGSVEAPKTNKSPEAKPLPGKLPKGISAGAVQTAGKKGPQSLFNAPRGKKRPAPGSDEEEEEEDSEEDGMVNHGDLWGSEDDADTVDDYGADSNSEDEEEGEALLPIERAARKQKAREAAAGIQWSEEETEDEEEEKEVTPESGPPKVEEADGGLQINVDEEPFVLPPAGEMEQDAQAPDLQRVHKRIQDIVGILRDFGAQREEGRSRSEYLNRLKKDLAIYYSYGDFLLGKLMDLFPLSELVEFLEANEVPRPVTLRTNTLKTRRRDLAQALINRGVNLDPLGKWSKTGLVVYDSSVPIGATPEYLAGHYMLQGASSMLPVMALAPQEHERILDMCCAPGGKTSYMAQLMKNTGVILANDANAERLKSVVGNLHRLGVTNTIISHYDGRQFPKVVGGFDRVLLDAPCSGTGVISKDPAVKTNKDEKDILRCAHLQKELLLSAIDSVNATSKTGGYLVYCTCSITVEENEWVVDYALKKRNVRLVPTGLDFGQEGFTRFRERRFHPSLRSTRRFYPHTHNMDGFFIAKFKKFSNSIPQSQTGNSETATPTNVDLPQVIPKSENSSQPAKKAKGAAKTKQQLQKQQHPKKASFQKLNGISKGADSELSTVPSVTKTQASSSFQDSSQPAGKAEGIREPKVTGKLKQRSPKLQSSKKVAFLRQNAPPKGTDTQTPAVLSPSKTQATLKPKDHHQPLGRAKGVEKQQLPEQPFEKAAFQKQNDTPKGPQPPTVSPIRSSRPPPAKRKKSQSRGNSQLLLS
UniProt Q2M296: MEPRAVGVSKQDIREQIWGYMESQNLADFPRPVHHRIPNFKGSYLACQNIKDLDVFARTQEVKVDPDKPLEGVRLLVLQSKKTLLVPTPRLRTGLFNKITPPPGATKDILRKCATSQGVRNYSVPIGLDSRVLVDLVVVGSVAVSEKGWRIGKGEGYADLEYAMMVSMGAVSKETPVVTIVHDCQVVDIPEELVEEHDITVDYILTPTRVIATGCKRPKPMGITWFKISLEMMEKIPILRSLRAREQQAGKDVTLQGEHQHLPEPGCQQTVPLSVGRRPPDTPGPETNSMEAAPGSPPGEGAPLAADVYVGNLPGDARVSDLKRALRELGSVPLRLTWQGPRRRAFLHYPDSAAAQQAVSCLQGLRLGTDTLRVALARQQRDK
UniProt P55160: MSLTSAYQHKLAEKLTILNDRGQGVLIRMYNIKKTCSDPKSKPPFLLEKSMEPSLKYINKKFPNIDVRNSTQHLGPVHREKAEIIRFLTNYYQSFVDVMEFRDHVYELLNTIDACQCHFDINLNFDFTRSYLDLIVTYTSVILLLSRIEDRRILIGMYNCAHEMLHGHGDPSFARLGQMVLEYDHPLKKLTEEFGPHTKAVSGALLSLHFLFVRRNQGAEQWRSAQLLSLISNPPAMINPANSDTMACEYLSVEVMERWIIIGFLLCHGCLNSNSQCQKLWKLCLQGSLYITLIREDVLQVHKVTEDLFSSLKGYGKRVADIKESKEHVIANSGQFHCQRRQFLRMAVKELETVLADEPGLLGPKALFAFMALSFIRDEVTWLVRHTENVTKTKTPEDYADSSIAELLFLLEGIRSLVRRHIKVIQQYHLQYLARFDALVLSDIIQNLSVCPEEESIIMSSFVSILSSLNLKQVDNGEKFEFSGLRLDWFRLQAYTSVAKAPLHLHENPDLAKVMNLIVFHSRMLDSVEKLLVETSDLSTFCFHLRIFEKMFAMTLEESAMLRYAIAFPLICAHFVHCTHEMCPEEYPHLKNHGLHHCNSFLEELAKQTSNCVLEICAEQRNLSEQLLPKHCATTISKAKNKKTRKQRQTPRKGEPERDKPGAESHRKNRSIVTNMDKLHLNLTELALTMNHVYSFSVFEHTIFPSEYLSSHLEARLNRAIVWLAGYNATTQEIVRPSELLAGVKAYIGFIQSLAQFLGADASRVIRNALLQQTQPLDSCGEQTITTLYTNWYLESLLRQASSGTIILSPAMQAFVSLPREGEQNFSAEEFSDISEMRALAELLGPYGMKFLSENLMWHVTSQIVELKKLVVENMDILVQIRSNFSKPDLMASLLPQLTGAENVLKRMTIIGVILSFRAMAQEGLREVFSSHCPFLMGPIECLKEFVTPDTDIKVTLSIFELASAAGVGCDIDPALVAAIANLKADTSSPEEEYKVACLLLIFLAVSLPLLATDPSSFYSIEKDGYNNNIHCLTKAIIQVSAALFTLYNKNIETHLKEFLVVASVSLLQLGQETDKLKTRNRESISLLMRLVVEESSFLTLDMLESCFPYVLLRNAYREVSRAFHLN
UniProt Q9H6R4: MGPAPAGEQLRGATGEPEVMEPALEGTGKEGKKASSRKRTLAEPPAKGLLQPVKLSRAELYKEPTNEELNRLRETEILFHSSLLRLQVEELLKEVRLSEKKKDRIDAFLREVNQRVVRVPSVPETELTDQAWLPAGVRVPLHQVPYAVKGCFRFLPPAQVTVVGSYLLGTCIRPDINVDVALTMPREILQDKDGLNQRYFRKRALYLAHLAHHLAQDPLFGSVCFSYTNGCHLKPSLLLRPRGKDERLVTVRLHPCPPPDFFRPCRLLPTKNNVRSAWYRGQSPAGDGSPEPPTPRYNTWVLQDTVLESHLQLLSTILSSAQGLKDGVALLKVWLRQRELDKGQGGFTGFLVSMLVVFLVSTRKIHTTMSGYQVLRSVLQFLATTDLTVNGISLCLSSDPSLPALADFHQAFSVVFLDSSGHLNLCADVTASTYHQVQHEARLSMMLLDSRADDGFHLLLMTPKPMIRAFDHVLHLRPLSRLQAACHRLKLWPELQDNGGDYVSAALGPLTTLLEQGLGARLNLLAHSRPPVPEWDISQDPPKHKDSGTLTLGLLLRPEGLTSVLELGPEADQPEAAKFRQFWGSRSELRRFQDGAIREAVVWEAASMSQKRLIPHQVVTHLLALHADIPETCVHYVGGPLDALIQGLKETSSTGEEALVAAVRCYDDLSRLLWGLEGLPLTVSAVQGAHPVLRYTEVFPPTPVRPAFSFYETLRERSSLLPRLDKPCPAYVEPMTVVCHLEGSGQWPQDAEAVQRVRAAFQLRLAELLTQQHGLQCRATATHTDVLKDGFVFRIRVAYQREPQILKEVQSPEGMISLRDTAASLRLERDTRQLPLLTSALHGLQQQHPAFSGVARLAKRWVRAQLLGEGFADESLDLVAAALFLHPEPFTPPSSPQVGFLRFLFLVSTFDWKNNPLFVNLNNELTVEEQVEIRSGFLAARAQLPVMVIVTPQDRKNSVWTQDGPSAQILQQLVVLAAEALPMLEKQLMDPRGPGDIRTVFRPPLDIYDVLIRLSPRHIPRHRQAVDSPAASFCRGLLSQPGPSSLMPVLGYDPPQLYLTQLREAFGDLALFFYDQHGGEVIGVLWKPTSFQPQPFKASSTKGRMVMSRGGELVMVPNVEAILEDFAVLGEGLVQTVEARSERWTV

Compound: COc1ccc(Cn2ccc3ccc(C(=O)NO)cc32)cc1
Test: dose-dependent thermal stabilisation call (2D-TPP, DLPTP, 10% FDR) (binary (1 = stabilised)); higher = stabilised by the compound
Conditions: system: HL-60 intact cells; concentration range 0.04-10 µM

Target	dose-dependent thermal stabilisation call
NHEJ1 (UniProt Q9H9Q4)	inactive: 0
MTG1 (UniProt Q9BT17)	inactive: 0
NAGK (UniProt Q9UJ70)	inactive: 0
N4BP1 (UniProt O75113)	inactive: 0
NAPG (UniProt Q99747)	inactive: 0
NEK4 (UniProt P51957)	inactive: 0
NDUFAF1 (UniProt Q9Y375)	inactive: 0
MTMR1 (UniProt Q13613)	inactive: 0
MTM1 (UniProt Q13496)	inactive: 0
MTX1 (UniProt Q13505)	inactive: 0
MYO18A	inactive: 0
NDUFA13 (UniProt Q9P0J0)	inactive: 0
MYL6B (UniProt P14649)	inactive: 0
MYO1F (UniProt O00160)	inactive: 0
NFATC3 (UniProt Q12968)	inactive: 0
NDUFC2 (UniProt O95298)	inactive: 0
MTA3 (UniProt Q9BTC8)	inactive: 0
MTHFD1 (UniProt P11586)	inactive: 0
NASP (UniProt P49321)	inactive: 0
MSL3 (UniProt Q8N5Y2)	inactive: 0
MTPAP (UniProt Q9NVV4)	inactive: 0
NOP2 (UniProt P46087)	inactive: 0
MVD (UniProt P53602)	inactive: 0
MTHFSD (UniProt Q2M296)	inactive: 0
MRPS35 (UniProt P82673)	inactive: 0
NCKAP1L (UniProt P55160)	inactive: 0
NOL6 (UniProt Q9H6R4)	inactive: 0

For convenience, part of the list above:
Target	dose-dependent thermal stabilisation call
NEK4 (UniProt P51957)	inactive: 0
NDUFAF1 (UniProt Q9Y375)	inactive: 0
MTMR1 (UniProt Q13613)	inactive: 0
MTM1 (UniProt Q13496)	inactive: 0
MTX1 (UniProt Q13505)	inactive: 0
MYO18A	inactive: 0
NDUFA13 (UniProt Q9P0J0)	inactive: 0
MYL6B (UniProt P14649)	inactive: 0
